Measured values taken from patent US20150307835 (published 2015).
The star is where a group is joined. Cbz = O=C(OCc1ccccc1)*; Boc = CC(C)(C)OC(=O)*; OtBu = CC(C)(C)O*

Test: general procedure: solution-phase peptide synthesis; 1-ethyl-3-(3-dimethylaminopropyl)carbodiimide / N-hydroxybenzotriazole; pivaloyl
[1] = late stage modification step, surface area

Z-Phe-Glu(OtBu)-Phe-Lys(Boc)-Phe-Glu(OtBu)-Phe-Lys(Boc)-NH—(CH2)3—O—(CH2)2—O—(CH2)2—O—(CH2)3—NHBoc
conjugation yield (conjugation step): 87% | crude HPLC purity (conjugation step, surface area): 88%

HOOCCH2OCH2CH2OCH2CH2NC(O)CH2OCH2C(O)-Phe-Glu(OtBu)-Phe-Lys(Boc)-Phe-Glu(OtBu)-Phe-Lys(Boc)-OEt
conjugation yield (conjugation step): 94% | crude HPLC purity (conjugation step, surface area): 89%

H2NCH2CH2OCH2CH2OCH2C(O)Phe-Glu-Phe-Lys-Phe-Glu-Phe-Lys-OEt
crude HPLC purity [1]: 85%

HOOC—CH2—O—CH2—C(O)-Phe-Glu(OtBu)-Phe-Lys(Boc)-Phe-Glu(OtBu)-Phe-Lys(Boc)-OEt
step yield (late stage modification step): 95% | crude HPLC purity [1]: 88%

HOOCCH2OCH2CH2OCH2CH2NC(O)CH2OCH2C(O)-Phe-Glu-Phe-Lys-Phe-Glu-Phe-Lys-OEt
step yield (late stage modification step): 85% | crude HPLC purity [1]: 85%

H-Phe-Glu(OtBu)-Phe-Lys(Boc)-Phe-Glu(OtBu)-Phe-Lys(Boc)-NH—(CH2)3—O—(CH2)2—O—(CH2)2—O—(CH2)3—NHBoc
step yield (late stage modification step): 83% | crude HPLC purity [1]: 90%

H3CO—[(CH2)2—O]2—CH2—CO—NH-FEFKFEFK-NH—[(CH2)3—O]2—(CH2)2—NH23HCl
crude HPLC purity (late stage modification step, HPLC method CH-GS-10, % of surface area): 84%

H-Phe-Glu-Phe-Lys-Phe-Glu-Phe-Lys-NH—(CH2)3—O—(CH2)2—O—(CH2)2—O—(CH2)3—NH2
step yield (late stage modification step): 85% | crude HPLC purity [1]: 88%

Cbz-FE(OtBu)FK(Boc)FE(OtBu)FK(Boc)-OEt
step yield (late stage modification step): 84% | crude HPLC purity [1]: 97%
